According to US20260015322A1, “DELIVERY OF THERAPEUTIC ALKALOID COMPOUNDS” (priority 2022, published 2026):
For some of these results: At least one structure is not confirmed: it was looked up by name or label, or the drawing left a doubt. Some of these results come from one statement about several compounds together.

Key:
[1] = assay type: in vivo, male C57BL/6 mice; conditions: 323; 323 IV 2 mg/kg, mice
Procedure: Total fifteen male mice were used in this study with n=3 mice/time point with sparse sampling study design. Animals were administered through intravenous route with solution formulation of 323 at 2 mg/kg dose. The formulation vehicle used was 1% NMP and 99% normal saline. Blood samples (approximately 60 μL) were collected under light isoflurane anesthesia from a set of three mice at 0.083, 0.25, 0.50, 1 and 2 h. The blood samples were collected at each time point in labeled micro centrifuge tube containing K2EDTA as anticoagulant and phenyl methyl sulfonyl fluoride [PMSF (100 mM; 10 μL/mL of blood)] as a stabilizer. Plasma samples were separated by centrifugation of whole blood and stored below −70° C. until bioanalysis. […]
The extraction procedure for plasma/brain samples and the spiked plasma/brain calibration standards were identical (PMSF Stabilized Plasma and Brain used for Preparation of calibration standards): A 20 μL of study sample plasma/brain or spiked plasma/brain calibration standard was added to individual pre-labeled micro-centrifuge tubes followed by 200 μL of internal standard prepared in acetonitrile (Rosuvastatin+Cetrizine, 50 ng/mL) was added except for blank, where 200 μL of acetonitrile was added. […] Following centrifugation, 200 μL of clear supernatant was transferred in 96 well plates and analyzed using LC-MS/MS. […]

[2] = Hydrolysis Assay - Condition 1 (SGF); assay type: physicochemical; conditions: Condition 1: SGF with pepsin pH 1.5, 37° C., 0.5 mM
Procedure: 50 uL of compound (10 mM) in DMSO was diluted into 950 uL of Simulated Gastric Fluid (SGF) with pepsin (pH 1.5) to a final concentration of 0.5 mM. The hydrolysis kinetics were conducted at 37° C. and measured by LCMS at a certain time interval.
(§1) The corresponding LCMS chromatogram were recorded and the conversions were calculated by integration of each peak.
(§2) • 1) LCMS spectra were obtained using Agilent 1200G1956A or SHIMADZU LCMS-2020. • Standard LCMS conditions were as follows (running time 1.55 minutes): • Acidic condition: Mobile Phase A: 0.0375% TFA in water (v/v). Mobile Phase B: 0.01875% TFA in acetonitrile (v/v); Column: Kinetex EVO C18 30*2.1 mm, 5 μm. • Basic condition: Mobile Phase A: 0.025% NH3·H2O in water (v/v). Mobile Phase B: Acetonitrile; Column: Kinetex EVO C18 2.1×30 mm, 5 μm. • 2) Conversion (%)=peak area 1/(peak area 1+peak area 2)*100%, peak area 1 is the integration of hydrolyzed product, peak area 2 is the integration of starting material.

[3] = Hydrolysis Assay - Condition 2 (DI Water); assay type: physicochemical; conditions: 25° C., 0.5 mM
Procedure: 50 uL of compound (10 mM) in DMSO was diluted into 950 uL of DI water to a final concentration of 0.5 mM. The hydrolysis kinetics were conducted at 25° C. and measured by LCMS at a certain time interval.
as §1, §2

COc1ccc([C@@]23CCC(OP4(=O)OCC(C)(C)CO4)=C[C@@H]2N(C)CC3)cc1OC [Compound 323, 2-[[(3aS,7aS)-3a-(3,4-dimethoxyphenyl)-1-methyl-3,4,5,7a-tetrahydro-2H-indol-6-yl]oxy]-5,5-dimethyl-1,3,2λ5-dioxaphosphinane 2-oxide]
plasma concentrations quantifiable up to [1]: up to 2 h

COc1ccc([C@@]23CCC(OC(=O)OC(C)(C)C)=C[C@@H]2N(C)CC3)cc1OC [Compound 358, [(3aS,7aS)-3a-(3,4-dimethoxyphenyl)-1-methyl-3,4,5,7a-tetrahydro-2H-indol-6-yl]tert-butyl carbonate]
Conversion (%) ([2]; 1 min): 0%
Conversion (%) ([2]; 5 min): 0%
Conversion (%) ([2]; 30 min): 0%
Conversion (%) ([2]; 1 h): 5%
Conversion (%) ([2]; 4 h): 100%
Conversion (%) ([2]; 24 h): 100%
Conversion (%) ([3]; 1 min): 0%
Conversion (%) ([3]; 5 min): 0%
Conversion (%) ([3]; 30 min): 0%
Conversion (%) ([3]; 1 h): 0%
Conversion (%) ([3]; 4 h): 83.46%
Conversion (%) ([3]; 24 h): 100%
